Experimental data from PubChem BioAssay AID493014 (National Center for Advancing Translational Sciences (NCATS), 2011).
Some of the results follow. Shown are side measurements of this screen, not its main read-out; they come without a call. The list favours compounds with an active or inconclusive main result. Potencies come from curve fits of mixed quality, noted in brackets.

Assay: qHTS Assay to Find Inhibitors of Chronic Active B-Cell Receptor Signaling
Details: ABC-DLBCL IkBa-CBG/CBR reporter, luminescence ratio (green luciferase fused to IkBa over red control in TMD8 lymphoma cells), 4 h
Method in brief: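 Doxycycline induced both beetle luciferases in TMD8 lymphoma cells; IKK-driven degradation limits the IkappaBalpha-fused green signal, while red luminescence normalises for cell number and nonspecific effects. Compounds tested up to 46 uM, 4 hrs.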

[1] = measured here: CBR red luminescence, cell number
[2] = measured here: IkBa-CBG green luminescence

SMILES | AC50 [1] | AC50 [2]
COc1cc(/C=C/C(=O)O)cc(S(=O)(=O)N2CCc3ccccc3C2)c1OC | 6.31 µM [rising, single point] | 
CCC(CC)C(=O)Nc1cccc(C(=O)Nc2ccc(OC)cc2[N+](=O)[O-])c1 | 4.47 µM [rising, full curve, poor fit] | 
CCC(C)Sc1cccc(-c2nc3ccc(C)cn3c2NCc2ccccc2)c1 (configuration not stated) | 6.51 µM [falling, single point] | 
CN(C)CCCN(C(=O)c1ccc2c(c1)CCCC2)c1nc2cc3c(cc2s1)OCO3 | 12.6 µM [falling, single point] | 
CN=C1SC(CC(=O)Nc2ccc(N3CCOCC3)cc2)C(=O)N1C (configuration not stated) | 18.4 µM [rising, single point] | 
Cc1cc(Cl)ccc1OCC(=O)N(Cc1cccs1)C1CCS(=O)(=O)C1 (configuration not stated) | 20 µM [falling, partial curve, poor fit] | 
COc1ccc2cc(OCC(=O)NNC(=O)Nc3ccc(OC)c(OC)c3)ccc2c1 | 8.91 µM [falling, partial curve] | 
COc1ccc(-c2nn(-c3ccccc3)cc2/C=C(\C#N)C(N)=O)cc1[N+](=O)[O-] | 3.55 µM [rising, partial curve, poor fit] | 
O=C(Nc1ccc2c(c1)OCCO2)C1CC(c2ccc(F)cc2)=NO1 (configuration not stated) | 12.6 µM [falling, single point] | 
COc1ccc2cc(CN(CCc3ccccc3)Cc3nnnn3CC3CCCO3)c(=O)[nH]c2c1 (configuration not stated) | 2.82 µM [falling, full curve, poor fit] | 
CCN(C(=O)COC(=O)c1ccc(Cl)c(N)c1)C1CCS(=O)(=O)C1 (configuration not stated) | 3.55 µM [falling, full curve] | 
Cc1cc(C(F)(F)F)c(C#N)c(SCC(=O)NC2CC2)n1 | 12.6 µM [rising, partial curve, poor fit] | 
O=c1[nH]c(C2CCN(S(=O)(=O)/C=C/c3ccccc3)CC2)nc2c1nnn2Cc1ccc(F)cc1 | 20 µM [falling, single point] | 
CCCCN=Cc1sc2ccc(OCC)cc2c1O | 23.1 µM [falling, single point] | 
CCc1ccc(Oc2coc3cc(OC(=O)c4cc5ccccc5oc4=O)ccc3c2=O)cc1 | 18.4 µM [rising, single point] | 
O=C1CN(C(=O)c2ccc(Cl)nc2)c2ccccc2N1 | 22.4 µM [rising, single point] | 
COc1ccc(-c2csc(NC(=S)NC(=O)c3ccco3)n2)cc1Br | 7.08 µM [rising, partial curve, poor fit] | 
O=C(/C=C/c1ccc2c(c1)OCCO2)c1ccccc1 | 35.5 µM [falling, single point] | 
CC(C)[C@H](NC(=O)N1CCn2c1nc1ccccc12)C(=O)NCc1ccccc1Cl | 11.2 µM [falling, single point] | 
COc1ccccc1C(=O)Nc1ccc2oc(-c3ccc(F)cc3)nc2c1 | 0.164 µM [falling, full curve, poor fit] | 
COc1cccc(-c2cc(=O)[nH][nH]2)c1 | 20 µM [falling, partial curve, poor fit] | 6.31 µM [rising, partial curve, poor fit]

By substructure, those above with a Cl atom (four)
SMILES | AC50 [1] | AC50 [2]
Cc1cc(Cl)ccc1OCC(=O)N(Cc1cccs1)C1CCS(=O)(=O)C1 (configuration not stated) | 20 µM [falling, partial curve, poor fit] | 
CCN(C(=O)COC(=O)c1ccc(Cl)c(N)c1)C1CCS(=O)(=O)C1 (configuration not stated) | 3.55 µM [falling, full curve] | 
O=C1CN(C(=O)c2ccc(Cl)nc2)c2ccccc2N1 | 22.4 µM [rising, single point] | 
CC(C)[C@H](NC(=O)N1CCn2c1nc1ccccc12)C(=O)NCc1ccccc1Cl | 11.2 µM [falling, single point] | 

Going on with the list.

SMILES | AC50 [1] | AC50 [2]
COC(=O)c1ccccc1NC(=O)CN(c1ccc(OC)cc1)S(C)(=O)=O | 29.1 µM [rising, single point] | 
COc1ccc(C2C=C(Nc3ccccc3)C(=O)N2c2ccccc2)cc1OC (configuration not stated) | 20.6 µM [falling, single point] | 
CCn1c2ccccc2c2cc(Nc3cc(C)nc4ncnn34)ccc21 | 6.51 µM [rising, full curve] | 8.2 µM [falling, partial curve]
O=c1nc(/C=C/c2ccc(O)c(O)c2)oc2ccccc12 | 7.08 µM [falling, partial curve] | 
CCOC(=O)c1ccc(NC(=O)CSc2nnnn2C2CCCCC2)cc1 | 32.6 µM [falling, partial curve, poor fit] | 
O=C(CC12CC3CC(CC(C3)C1)C2)N1CCCC1 | 23.1 µM [falling, partial curve] | 
COc1ccccc1CC(=O)Nc1ccc2c(C)cc(=O)oc2c1 | 12.6 µM [falling, partial curve, poor fit] | 
C[C@H](CO)N1C[C@H](C)[C@@H](CN(C)C(=O)Nc2ccc3c(c2)OCO3)Oc2ccc(NS(=O)(=O)c3ccccc3)cc2C1=O | 0.731 µM [rising, full curve, poor fit] | 
O=C(NCc1ccc(F)cc1)c1cccc(S(=O)(=O)N2CCOCC2)c1 | 14.6 µM [rising, partial curve, poor fit] | 
Cc1nc(-c2ccccn2)nc(SCC(=O)c2ccccc2)c1Cl | 0.794 µM [falling, full curve, poor fit] | 
CCCCn1cnc2c(oc3ccccc32)c1=O | 0.501 µM [rising, full curve, poor fit] | 
CC(OC(=O)CCCOc1ccccc1)C(=O)NC(N)=O (configuration not stated) | 29.1 µM [rising, single point] | 
CC(C)(C)c1ccc(C(=O)N2CCC(C(=O)NC3CC3)CC2)cc1 | 4.47 µM [rising, full curve, poor fit] | 
Oc1ccc(N2CCN(c3ncnc4sc(-c5ccccc5)cc34)CC2)cc1 | 22.4 µM [falling, partial curve, poor fit] | 
Cc1ccc(C)c(NC(=O)c2cc3ccccc3o2)c1 | 15.8 µM [falling, partial curve, poor fit] | 
COc1ccc(C2C(C(C)=O)=C(O)C(=O)N2c2nc3ccccc3s2)cc1OC (configuration not stated) | 6.31 µM [rising, single point] | 
COc1ccc(CN2C[C@H]3CCCN3c3cc(Br)ccc3S2(=O)=O)cc1 | 8.2 µM [rising, partial curve] | 14.6 µM [falling, partial curve]
CCOC(=O)c1ccc(NC(=S)NCc2ccco2)cc1 | 1.78 µM [rising, partial curve, poor fit] | 
Cc1ccc(-c2nnn(CCOc3cccc(Br)c3)n2)cc1 | 16.4 µM [rising, single point] | 
CCCC1(C(=O)O)NC(c2ccccc2O)C2C(=O)N(Cc3ccccc3)C(=O)C21 (configuration not stated) | 6.51 µM [falling, full curve, poor fit] | 
Cc1cc(C)c(C(=O)COc2cccnc2[N+](=O)[O-])cc1C | 29.1 µM [falling, partial curve, poor fit] | 

SMILES | AC50 [1] | AC50 [2]
Cc1[nH]n(-c2ccccc2)c(=O)c1N=Nc1ccccc1C(=O)O | 12.6 µM [falling, partial curve] | 
O=C(CCC1N=C2c3ccccc3N=C(SCc3ccc(F)cc3)N2C1=O)NC1CCCCC1 (configuration not stated) | 3.16 µM [rising, partial curve, poor fit] | 
CCOC(=O)CSc1nnc(Cn2nnc3ccccc32)n1-c1ccc(F)cc1 | 3.98 µM [falling, single point] | 
CCCOC(=O)c1ccc(O)cc1 | 23.1 µM [rising, partial curve, poor fit] | 
O=C(Nc1ccc2c(c1)nc1n2CCSC1)c1ccco1 | 7.08 µM [falling, partial curve] | 
CCOC(=O)c1ccc(NC(=O)c2ccc(C)c(S(=O)(=O)N3CCOCC3)c2)cc1 | 25.9 µM [falling, single point] | 
CS(=O)(=O)c1ccc(Cl)c(NC(=O)C2CC(=O)N(Cc3ccccc3)C2)c1 (configuration not stated) | 20.6 µM [falling, single point] | 
CCN1/C(=C/c2ccc3cc(C)ccc3[n+]2CC)Sc2cc(C)ccc21 |  | 12.6 µM [rising, partial curve, poor fit]
CCCCCOc1ccc(C(=O)NCC(=O)NCC(=O)OCC)cc1 | 12.6 µM [rising, single point] | 
O=C(Nc1ccccn1)c1ccc(Cl)c(S(=O)(=O)N2CCCC2)c1 | 16.4 µM [falling, single point] | 
CCn1c(CNc2cccc(Cl)c2)nnc1SCc1ccccc1 | 12.6 µM [falling, single point] | 
COc1ccc(-c2csc(Nc3ccccn3)n2)cc1 | 10 µM [falling, partial curve] | 
c1cncc(CNc2cccc(-c3nc4ccccc4[nH]3)c2)c1 | 7.31 µM [falling, partial curve, poor fit] | 
CO/N=C/C(C#N)=C/c1cc(C(=O)c2ccc(F)cc2)cn1C | 35.5 µM [rising, single point] | 
COc1ccc(C(=O)NC(=S)NNC(=O)c2c(-c3ccccc3)noc2C)cc1OC | 0.398 µM [rising, full curve, poor fit] | 
CCN1CCCC1CNC(=O)C(=O)Nc1cccc(OC)c1 (configuration not stated) | 29.1 µM [falling, single point] | 
COc1cc(/C=N/Nc2ccc(S(N)(=O)=O)cc2)cc(OC)c1OC |  | 15.8 µM [falling, single point]
CCOC(=O)c1ccc(NC(=O)c2nn(CC)cc2Br)cc1 | 23.1 µM [falling, single point] | 
C=C(CCC(=O)c1ccccc1)C(=O)c1ccccc1 | 11.6 µM [falling, partial curve] | 13 µM [rising, partial curve, poor fit]
COc1ccc(C(=O)CSc2nnc(C3CC3)n2N)cc1 | 3.26 µM [rising, full curve, poor fit] | 
Cc1ccc(N=Nc2c(N)n(-c3ccccc3)[nH]c2=O)cc1 | 2.24 µM [falling, full curve] | 
